Laboratory results: patent publication US8492375B2, “1-benzoyl substituted diazepine derivatives as selective histamine H3 receptor agonists” (Glaxo Group Limited, priority 2003, dated 2013)
Some of these results come from one statement about several compounds together. At least one compound was matched to its structure with a doubt left.

Sequences of proteins named here, by UniProt entry; tags and fusion partners are left off. A change or cut given only in a name is not applied to a line headed by its entry.
UniProt Q9Y5N1: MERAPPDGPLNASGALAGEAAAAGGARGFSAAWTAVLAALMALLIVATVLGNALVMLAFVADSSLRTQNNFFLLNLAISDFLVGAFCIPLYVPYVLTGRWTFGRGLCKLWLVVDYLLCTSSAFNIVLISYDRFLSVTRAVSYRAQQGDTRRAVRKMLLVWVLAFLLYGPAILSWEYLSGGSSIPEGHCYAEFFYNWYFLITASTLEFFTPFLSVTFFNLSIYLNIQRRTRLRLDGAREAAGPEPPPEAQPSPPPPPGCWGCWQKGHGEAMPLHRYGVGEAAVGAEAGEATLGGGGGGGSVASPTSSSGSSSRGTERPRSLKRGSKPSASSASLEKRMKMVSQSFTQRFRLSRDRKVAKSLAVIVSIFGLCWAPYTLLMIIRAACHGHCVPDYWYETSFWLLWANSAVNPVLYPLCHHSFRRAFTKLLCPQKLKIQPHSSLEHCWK

Molecular target: histamine H3 receptor (Homo sapiens, UniProt Q9Y5N1)
Experiment: Histamine H3 functional antagonist assay ([35S]GTPγS binding, SPA, membranes of CHO K1 cells)
Details: antagonism of 0.3 μM histamine, membranes with human H3 receptor

In the case of CC(C)N1CCCN(C(=O)c2ccc(-c3ccc(C(F)(F)F)nc3)cc2)CC1 [Example 19], the “pKb, histamine H3 functional antagonist assay” value is reported as greater than 8.0.
